# PubChem BioAssay AID1259331, Drosophila RNAi Screening Center | 2017
# Assay: 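Knock-downs that alter ATP level after a high zinc chloride dose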 (primary screen)
# System: Drosophila S2R+ cells
# Reagents: long dsRNA against Drosophila genes
# Timing: 5 days (4 days knock-down, then 1 day zinc)
# Challenge: zinc chloride at 15 mM final level for 1 day
# Measured: 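Total cellular ATP measured by luciferase luminescence as a viability proxy, turned into Z scores from three plate copies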
# Direction: mean Z score: higher = more ATP than other wells, better survival under zinc; ATP luminescence: higher = more ATP, more viable cells
# Call rule: 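Hit when the absolute Z score is greater than 1.5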
# Calls: active = hit, ATP up or down; inactive = not a hit
# Shown is an unselected part of about 3,100 deposited reagents. Over the whole deposit, 126 (4.1%) got an active call. 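Calls are per reagent; zinc was so toxic that few knock-downs lowered ATP further, so most hits raise ATP.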 The raw values are shown without normalisation. Names joined by + are all predicted targets of the reagent. Not given: the amount of reagent.
gene,dsRNA,mean Z score,"ATP luminescence, replicate 1","ATP luminescence, replicate 2",call
wls,DRSC10605,-0.316,31930,26051,inactive
wls,DRSC29313,-0.505,53430,53790,inactive
ninaA,DRSC00830,-0.421,44480,56431,inactive
CG31121,DRSC15361,0.178,54236,47411,inactive
CG31121,DRSC15363,-0.0898,39353,61591,inactive
COX6AL2 + Ir75d,DRSC10081,0.0951,78280,62261,inactive
COX6AL2 + Ir75d,DRSC39747,-0.232,60632,56808,inactive
Sec22,DRSC29297,-0.238,55213,60289,inactive
Sec22,DRSC39605,-0.315,57511,56122,inactive
Osi19,DRSC12569,-0.218,72886,56516,inactive
ACXA,DRSC25338,-0.0636,55573,53519,inactive
ACXA,DRSC39549,0.0391,58643,62621,inactive
ppk21,DRSC14466,0.313,72105,70356,inactive
ppk21,DRSC39432,-0.532,43931,45628,inactive
CG3690,DRSC18170,0.513,46897,50498,inactive
CG3690,DRSC18641,-0.372,57607,62210,inactive
CG34135 + CG11768,DRSC12702,0.734,74781,81722,inactive
CG34135 + CG11768,DRSC38826,-0.369,41846,36755,inactive
CG6125,DRSC15970,0.389,38410,66753,inactive
Cals,DRSC17196,-0.392,44514,37999,inactive
Cals,DRSC21661,0.0862,49212,48012,inactive
Ndae1,DRSC02770,1.67,76697,83168,active
Ndae1,DRSC39781,1.53,73958,82036,active
PIG-U,DRSC02193,-0.249,49415,56208,inactive
PIG-U,DRSC28900,-0.305,58128,55217,inactive
CG10183,DRSC14203,0.499,40245,65485,inactive
CG10183,DRSC25343,0.27,55025,56533,inactive
bbc,DRSC22309,0.219,55736,58557,inactive

Reagents listed above with an active call:
gene,dsRNA,mean Z score,"ATP luminescence, replicate 1","ATP luminescence, replicate 2",call
Ndae1,DRSC02770,1.67,76697,83168,active
Ndae1,DRSC39781,1.53,73958,82036,active
